Data taken from PubChem BioAssay AID624297 (National Center for Advancing Translational Sciences (NCATS), 2012).
About 6,200 (1.8%) of roughly 340,000 compounds were called active. This list was built around the results that the source calls inconclusive (neither active nor inactive); the mix of calls is not that of the screen. Calls follow the shape of the dose curve; as a rule, active = well fitted activation curve with a large enough effect; inconclusive = small, poorly fitted or top-dose-only effect; inactive = no such curve, though single readings can be large or run the other way. A potency beside an inconclusive call is a rough fit, not a confirmed value.

Experiment: A quantitative high throughput screen for small molecules that induce DNA re-replication in SW480 colon adenocarcinoma cells. Also: nearly all actives have a fitted effect of over 55% in size. As to re-replication activation: % of control where 0% means no effect.
Settings: Hoechst DNA content imaging, 48 h; re-replication activation: at 46.1 µM (top of the series) unless noted
How it was run: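 First, 250 cells per well were seeded. Next, compound or vehicle (23 nL) was pinned in, plates sat 48 hr at 37 C. Finally Hoechst was added for 40 min before fluorescence scanning.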
Potency is read from the fitted curve at half-maximal effect.

| SMILES | Potency | re-replication activation |
| --- | --- | --- |
| COc1ccccc1NC(=O)Nc1nc(CC(=O)NCc2ccc(F)cc2)cs1 | inconclusive: 18.4 µM [activator, single point] |  |
| O=C(NNC(=S)NC1CCCCC1)c1ccc2c(c1)OCO2 |  | inactive: 4.3% |
| Cn1c2ccccc2c2nnc(SCC(=O)NC3CC3)nc21 |  | inactive: -46.3% |
| Cc1cc(C(=O)CSc2nc3ccc(Cl)cc3[nH]2)c(C)n1CC1CCCO1 (stereo not given) | inconclusive: 0.731 µM [activator, full curve, poor fit] |  |
| COc1ccc(-c2nc3ccccc3nc2-c2ccc(OC)cc2)cc1 | inconclusive: 11.6 µM [activator, partial curve, poor fit] |  |
| CCCCNc1c(-c2cccc(-c3cc(C(C)=O)cs3)c2)nc2ccc(C)cn12 | inconclusive: 16.4 µM [activator, partial curve, poor fit] |  |
| COc1ccc2[nH]c(=O)c(CNc3ccc(C)c(C)c3)cc2c1 | inconclusive: 29.1 µM [activator, single point] |  |
| O=C(c1ccc(-c2cccc(C(F)(F)F)c2)o1)N1CCCC(C(F)(F)F)C1 (stereo not given) | inconclusive: 5.8 µM [activator, partial curve, poor fit] |  |
| CCOC(=O)c1sc(NC(=O)c2cccc(S(=O)(=O)N(CC)CC)c2)cc1C |  | inactive: 15.8% |
| CCOC(=O)Cc1csc(SC(C)C(=O)NC2CCCCC2C)n1 (stereo not given) |  | inactive: -2.44% |
| COc1ccc(Cn2c(CCC(=O)NCc3ccco3)nc3cccnc32)cc1 |  | inactive: -2.71% |
| COc1cccc(OCc2cc(C(=O)N3CCC(C(O)C(C)C)CC3)no2)c1 (stereo not given) | inconclusive: 0.184 µM [activator, full curve, poor fit] |  |
| O=S(=O)(c1ccc(F)cc1)N1CCN(S(=O)(=O)c2cc(F)ccc2F)CC1 | inconclusive: 20.6 µM [activator, partial curve, poor fit] |  |
| CCN(CC)C(=O)Oc1ccc2c(=O)c(-c3ccc(OC)cc3)coc2c1 | inconclusive: 29.1 µM [activator, partial curve, poor fit] |  |
| O=C(COc1cccnc1[N+](=O)[O-])Nc1ccccc1Sc1ccccc1 |  | inactive: -8.38% |
| O=C(COC(=O)c1cccc(S(=O)(=O)N2CCOCC2)c1)NCc1ccc2c(c1)OCO2 | inconclusive: 3.66 µM [activator, partial curve, poor fit] |  |
| C=CCNC(=O)/C(C#N)=C/c1c(N2CC(C)OC(C)C2)nc2ccccn2c1=O (stereo not given) | active: 16.4 µM |  |
| CCN(CC)C(=O)[C@H]1CC(CC(=O)NCCN2CCOCC2)C(=O)N2CCc3c([nH]c4ccc(OC)cc34)[C@]12C (stereo not given in full) |  | inactive: 0.755% |
| N#Cc1c(NCCN)nc(NCc2ccccc2)c2c1CCN(Cc1ccccc1)C2 | active: 20.6 µM |  |
| Cc1c(NS(=O)(=O)c2ccccc2F)c(=O)n(-c2ccccc2)n1C | inconclusive: 1.84 µM [activator, single point] |  |

| SMILES | Potency | re-replication activation |
| --- | --- | --- |
| CC(C)(C)c1ccc(C(=O)Nc2cccc(C(=O)N3CCOCC3)c2)cc1 | inconclusive: 5.17 µM [activator, full curve] |  |
| Cc1cccc(CN2CCC(C(=O)Nc3cccc(-c4cccc(F)c4)c3)CC2)n1 | inconclusive: 29.1 µM [activator, single point] |  |
| C=CCOc1ccc(CN(C)CC(=O)Nc2ccc3c(c2)CCC3)cc1 |  | inactive: -1.19% |
| CCc1ccc(NC(=O)c2onc(C)c2Cl)cc1 | inconclusive: 6.51 µM [activator, single point] |  |
| CCC(C)C(NC(=O)c1ccccc1)C(=O)Nc1ccc(S(=O)(=O)Nc2cc(C)nc(C)n2)cc1 (stereo not given) |  | inactive: 2.47% |
| Nc1[nH]ncc1-c1ccccc1 | inconclusive: 2.91 µM [activator, full curve, poor fit] |  |
| Cc1cccc2nc(COc3ccc4ccccc4c3Br)cn12 |  | inactive: 5.69% |
| C=CCN(c1ccc(C(=O)Nc2ccc(C)cc2)cc1)S(C)(=O)=O |  | inactive: -1.82% |
| Cc1cc(N2CCN(Cc3nc(-c4ccc(Cl)cc4)oc3C)CC2)cc(C)n1 | inconclusive: 10.3 µM [activator, partial curve, poor fit] |  |
| Cc1cc(C)nc(Sc2ccc3nnc(C(F)(F)C(F)(F)C(F)(F)F)n3n2)n1 | active: 14.6 µM |  |
| COc1ccc(Cc2nnc(SCc3c(C)noc3C)n2C2CCCCC2)cc1OC |  | inactive: 3.3% |
| O=C(Cc1ccc([N+](=O)[O-])cc1)c1ccc(O)cc1O | inconclusive: 29.1 µM [activator, single point] |  |
| Cc1cc(C)n(-c2nc3ccccc3nc2N2CCN(S(=O)(=O)c3ccc4ccccc4c3)CC2)n1 | inconclusive: 25.1 µM [activator, single point] |  |
| CC(=O)Oc1ccccc1C(=O)C=Cc1cccc([N+](=O)[O-])c1 | inconclusive: 20.6 µM [activator, partial curve, poor fit] |  |
| CCC1=NN(C(=O)c2ccc(Cl)cc2)C(O)(c2ccc(C)cc2)C1 (stereo not given) | inconclusive: 29.1 µM [activator, single point] |  |
| CC1=C(C(=O)Nc2cccc(C)n2)C(c2ccc3c(c2)OCO3)C2=C(CC(c3ccco3)CC2=O)N1 (stereo not given) | inconclusive: 18.4 µM [activator, single point] |  |
| CCOc1cc(/C=N/NC(=O)C(=O)NCCCOC(C)C)cc(Br)c1O | inconclusive: 23.1 µM [activator, single point] |  |
| CC(C)Nc1nc(-c2ccccn2)nc(-c2ccccc2)c1C#N | inconclusive: 18.4 µM [activator, single point] |  |
| COc1ccc(N2C(=O)[C@@H]3C(c4cccnc4)=NO[C@@H]3C2=O)cc1 | inconclusive: 29.1 µM [activator, single point] |  |
| O=C(NC1CCN(S(=O)(=O)c2ccccc2)CC1)c1cccc(F)c1 |  | inactive: 0.479% |

Reformatted: results already given.
CC(C)(C)c1ccc(C(=O)Nc2cccc(C(=O)N3CCOCC3)c2)cc1
  Potency: inconclusive: 5.17 µM [activator, full curve]
Cc1cccc(CN2CCC(C(=O)Nc3cccc(-c4cccc(F)c4)c3)CC2)n1
  Potency: inconclusive: 29.1 µM [activator, single point]
